## Library screen at single concentrations

Protein sequences, listed by entry. Tags and fused reporters are not part of them. Residues count along the entry.
UniProt Q8IDJ8, 1-583: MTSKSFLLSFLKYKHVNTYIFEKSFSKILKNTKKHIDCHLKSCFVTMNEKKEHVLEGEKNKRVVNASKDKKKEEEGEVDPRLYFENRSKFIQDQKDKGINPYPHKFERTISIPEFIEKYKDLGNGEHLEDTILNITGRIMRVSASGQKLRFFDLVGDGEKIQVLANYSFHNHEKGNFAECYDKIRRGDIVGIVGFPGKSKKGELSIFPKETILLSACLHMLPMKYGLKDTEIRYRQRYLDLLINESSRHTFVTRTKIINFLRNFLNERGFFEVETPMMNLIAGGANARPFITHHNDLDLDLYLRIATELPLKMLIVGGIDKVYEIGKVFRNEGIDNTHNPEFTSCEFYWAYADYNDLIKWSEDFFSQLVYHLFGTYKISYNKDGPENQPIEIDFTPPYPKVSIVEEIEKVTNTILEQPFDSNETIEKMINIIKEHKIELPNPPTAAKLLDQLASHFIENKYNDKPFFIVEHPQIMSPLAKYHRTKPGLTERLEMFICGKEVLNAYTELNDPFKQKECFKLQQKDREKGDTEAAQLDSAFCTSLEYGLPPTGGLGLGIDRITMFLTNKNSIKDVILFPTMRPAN

The values are deposited in ChEMBL (CHEMBL3988442, “University of Dundee, Small-Polar-MMV Screening Library” (2021)).

T. brucei: 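Whole-parasite assay of Trypanosoma brucei over 72 hours; the read-out is not stated. Tested at 30 µM. Direction is inferred from retests: higher values go with stronger inhibition. Values scatter widely below zero; nearly all retest evidence comes from the higher of the two concentrations used. Size under these conditions: about 64,000 compounds, about 940 of them at 50% or above in at least one test.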
PfKRS1: 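Enzyme assay of the cytosolic lysyl-tRNA synthetase in 384-well plates, read by luminescence. Target: Lysine-tRNA ligase, Plasmodium falciparum 3D7 (UniProt Q8IDJ8). Concentration: 30 µM. Direction is inferred from only a few compounds that gave an IC50; most scored high, so higher reads as stronger inhibition. About 69,000 compounds were tested under these conditions; 0.071% (about 49) showed 50% or more at least once.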

Values are the deposited “Percent Effect”, in %.
The controls that fix the scale are not given in the record; negative values are as filed.
Compounds were drawn at random from those tested, without regard to their results.
A dash means the value is not listed here; it may have been measured.

structure,T. brucei,PfKRS1
O=C(Cc1ccc2c(c1)OCCO2)NCc1ccc(-n2cncn2)nc1,-25.06%,0.4587%
Cc1cc(CNc2ccc3nc(C4CC4)sc3c2)no1,-19.6%,-0.07799%
CN(Cc1ccon1)CC1CCOc2ccccc2C1 (stereo unspecified),-16%,0.4558%
O=C(NCCC1CN(Cc2c[nH]cn2)CCO1)Nc1ccccc1 (stereo unspecified),5.403%,-1.111%
CNCc1ccc(OCc2ccc3c(c2)OCCO3)cc1,-,-3.328%
Cn1ccnc1CNC(=O)c1cncc(C2CCNCC2)n1,-,2.982%
CN(C)Cc1nnc2n1CCCN(C(=O)c1c[nH]cn1)C2,-44.14%,0.0978%
COC[C@@]12CCO[C@@H]1CCN(C(=O)C1CCOCC1)C2,-,5.781%
Cc1cc(C(=O)N2C[C@@H]3COC[C@]3(CN(C)C)C2)sc1C,-,-0.1987%
COCCO[C@H]1CCN(C(=O)c2ccc[nH]2)[C@H]1Cc1ccncc1,40.82%,-0.8699%
Cc1cccc(CN2C[C@@H]3CN(C(=O)NC(C)C)C[C@@H]3C2=O)n1,-,3.495%
Cc1ccc2[nH]c(CN(C)c3cc(CCN)nc(C)n3)nc2c1,0.9103%,3.111%
COCCN(C)C(C(=O)O)c1ccc(F)c(C)c1 (stereo unspecified),-18.34%,-1.877%
CCC(CCO)NS(=O)(=O)c1ccc(Br)cn1 (stereo unspecified),12.31%,2.283%
Cn1cc(CN2CCC3(CCCN3Cc3cccnc3)CC2)cn1,-,-0.05902%
O=C(O)c1ccc(Cc2cccc(F)c2)nc1,-,3.112%
[H][C@]12CC[C@]([H])(CN(C(=O)C3CCC3)C1)N(Cc1cnn(CC)c1)C2,-22.09%,-
O=c1[nH]cc(Nc2ccc(Cl)cc2)c(=O)[nH]1,-62.6%,-2.267%
[H][C@@]12OCCN(C(=O)C3CCOCC3)[C@@]1([H])CC[C@H]2OC,-14.13%,-
CCc1noc(C)c1C(=O)N1CCCC1Cn1nc(C)cc1C (stereo unspecified),31.63%,0.2873%
CC(C)OCCN(C)CC(c1cccs1)N1CCOCC1 (stereo unspecified),-48.86%,-3.162%
CN(C)C(=O)c1cnc2n1CCN(Cc1ccncc1)C2,-48.95%,-1.478%
O=S(=O)(NC[C@H]1OC[C@@H](NCc2cccs2)[C@@H]1O)c1ccccc1,-10.94%,1.211%
Cc1c(C(C)N)cnn1-c1cccc2ccccc12 (stereo unspecified),4.796%,7.632%
COCCN(C)C[C@@H]1CN(C(=O)c2c(F)ccc(OC)c2F)C[C@@H]1CO,-55.9%,-2.119%
CCOC(=O)CC1CCCCN1C(=O)c1cc(C)on1 (stereo unspecified),-13.63%,-0.2828%
CC1(C)[C@H](Cc2cc(CO)on2)C[C@@H]1N(CC1CC1)CC1CC1,-8.921%,-3.591%
Cc1nn(C)c(C)c1C1CCCN1Cc1nc2ccccc2c(=O)[nH]1 (stereo unspecified),-,1.661%
Cc1cc(C2CCCN(C(=O)c3cnccn3)C2)ccn1 (stereo unspecified),0.9638%,6.246%
CCOC(=O)N1CCN(CC(=O)Nc2ccc(F)cc2Cl)CC1,-43.07%,1.856%
CNC(=O)c1cc(NC(=O)NC2CC2)ccc1F,4.356%,2.879%
CN1CC2(CCN(Cc3cc(Cl)ccc3OCC(=O)O)CC2)OC1=O,-57.29%,1.625%
Cn1cc(CN2CCCC3(CCN(C(=O)c4ccccn4)C3)C2)cn1.O=C(O)C(F)(F)F.O=C(O)C(F)(F)F.O=C(O)C(F)(F)F (stereo unspecified),2.56%,-
CN(Cc1ccc(-n2cccn2)cc1)c1cc(N)nc(N)n1,7.115%,-4.554%
CN[C@H]1CC[C@]2(CC1)CNC(=O)c1cc(C)ccc1O2,12.97%,1.894%
Cc1cc(CC2COCCN(CCc3ccccc3)C2)ncn1 (stereo unspecified),-,-2.746%
Cn1cc(CN2CCC(CCC(=O)Nc3ccccc3Cl)CC2)cn1,-8.832%,-6.613%
CNc1cc(CNC(=O)c2ccncc2)nc(-c2ccncc2)n1,10.1%,4.192%
CCc1[nH]c(C2(N)CCCC2)nc(=O)c1C,-27.37%,-2.062%
CC(C)c1cc(CN2CCC(CC(=O)O)CC2)no1,-18.31%,3.354%
COc1nc2c(cc1C(=O)NCc1noc(-c3ccco3)n1)CCC2,-73.68%,-0.6702%
Cc1ccc(S(N)(=O)=O)cc1C(=O)N1C[C@@H](CN(C)C)[C@@H](CO)C1,-13.77%,3.862%
Cc1nc(=O)c2ccccc2n1C1=CCN(CC(=O)N2CCCC2)CC1,9.131%,0.4255%
Cc1c(NCc2cccnc2)cccc1C(=O)N1CCC(N(C)C)C1 (stereo unspecified),-38.59%,5.36%
CCNC(=O)C1CCCN(c2cccc(C(F)(F)F)n2)C1 (stereo unspecified),8.613%,8.168%
CC1Cc2ccccc2N1Cc1occc1C(=O)NCC(=O)N(C)C (stereo unspecified),-29.48%,4.921%
O=C(O)C(F)(F)F.[H][C@]12CCC[C@@H](CNc3nccn3C)[C@@]1([H])CN(Cc1cnn(C)c1)C2,-66.74%,-
CC(C)NC(=O)CCNC(=O)Nc1cnn(-c2ccccc2F)c1,-21.99%,10.64%
CCn1ncc2c1NC(=O)C(C#N)C21CCCC1 (stereo unspecified),-26.49%,5.52%
O=C(c1ccco1)N1CC[C@H]2[C@H]1CCN2CC1CCOCC1,-,-2.276%
Cc1nn(C)c(C)c1C1CCCN1CC(=O)NC(C1CC1)C1CC1 (stereo unspecified),15.66%,0.5057%
Cc1cccc(CN2C(=O)CCC23CCN(C(=O)N2CCCC2)CC3)n1,-,-2.589%
COc1cccc(CN2CCN(c3ccc4nncn4n3)C(C)C2)c1 (stereo unspecified),97.2%,1.681%
CCOc1ccc(S(=O)(=O)NC(=O)CCC2CCCO2)cc1 (stereo unspecified),-13.99%,5.081%
CN(C)C(=O)CN1CCCC(c2nccnc2-c2cccc(Cl)c2)C1 (stereo unspecified),-2.355%,-0.1187%
Cc1cccc(OC(C)C(=O)NCC2(N(C)C)CCCC2)c1 (stereo unspecified),-19.67%,-0.9842%
Cc1sc(NC(=O)CN2CCCC(c3ncc[nH]3)C2)c(C)c1C (stereo unspecified),12.93%,1.894%
OC(CN1CCC(c2ccn[nH]2)CC1)c1ccc(F)cc1 (stereo unspecified),-10.67%,0.8103%
O=C(c1ccc(=O)[nH]c1)N1CCCC2(C=Cc3ccccc3O2)CC1 (stereo unspecified),-13.99%,1.465%
CCOC1COC2(CCN(CC3CCOCC3)CC2)C1 (stereo unspecified),-,-1.154%
Cc1cccc(CN2CCC3(CCN(Cc4ccccn4)C3)C2=O)c1 (stereo unspecified),-,-10.25%
O=C(O)CC1COCCN1C(=O)C1(c2ccc(Cl)cc2)CCC1 (stereo unspecified),-14.65%,0.15%
CCn1nc(C)c2nc(C)nc(NCCc3ccc(C)cc3)c21,100.2%,5.21%
FC(F)(F)CCN(Cc1ccon1)C1CCC1,-27.25%,5.297%
CCOc1ccccc1C(CC(=O)Nc1ccncc1)NC(C)=O (stereo unspecified),9.124%,-2.423%
Cn1nc(CN2CCCC2)c2c1CN(CC1CC1)CC2.O=C(O)C(F)(F)F.O=C(O)C(F)(F)F,-50.29%,-
CC(=O)N1CCCN(C(=O)NCCOc2ccc3c(c2)OCO3)CC1,-,1.466%
CC(=O)N1CCN(C(C)c2nnc(CC(C)C)o2)CC1 (stereo unspecified),-8.99%,4.239%
O=C(c1cc[nH]n1)N1CC[C@@H]2CN(Cc3cccnc3)S(=O)(=O)[C@@H]2CC1,-,-0.192%
COc1ccc(F)cc1C(=O)N1CCn2c(nnc2C(F)(F)F)C1,-15.22%,6.146%
CC(C)(C)C(=O)NCCC(=O)Nc1cc(C#N)cn1C(C)(C)C,-26.63%,3.441%
CCCS(=O)(=O)N1CCC2(CCC(=O)N(CCc3ccncc3)C2)CC1,-24.81%,3.515%

Repeated from the top, 5 entries:

{"structure": "O=C(Cc1ccc2c(c1)OCCO2)NCc1ccc(-n2cncn2)nc1", "T. brucei": -25.06, "PfKRS1": 0.4587}
{"structure": "Cc1cc(CNc2ccc3nc(C4CC4)sc3c2)no1", "T. brucei": -19.6, "PfKRS1": -0.07799}
{"structure": "CN(Cc1ccon1)CC1CCOc2ccccc2C1", "stereo": "stereo unspecified", "T. brucei": -16, "PfKRS1": 0.4558}
{"structure": "O=C(NCCC1CN(Cc2c[nH]cn2)CCO1)Nc1ccccc1", "stereo": "stereo unspecified", "T. brucei": 5.403, "PfKRS1": -1.111}
{"structure": "CNCc1ccc(OCc2ccc3c(c2)OCCO3)cc1", "PfKRS1": -3.328}